This is one part of the list. At the low end of the ranking the order means little.
Each sequence was assayed on c-MYC + MAX + histone octamer (assay: Pioneer-seq (competitive nucleosome EMSA with sequencing)). Details: 10 mM Tris-Cl pH 7.5, 50 mM NaCl, 1 mM DTT, 0.25 mg/ml BSA, 2 mM MgCl2, 0.025% Nonidet P-40, 5% glycerol; 28 nM nucleosome library; 10 min on ice then 30 min …; high values mean tight binding; double strand, one strand shown.

Sequence	binding signal (log2 relative supershift)
GATGGACCCTATACGCGGCCCTGGAGAATCTCTGACCCTCCCCACAAGTGTTTACATCAGATGCTTTTGTAAACATGAAGGAACCTTCCCAGGGCCTTGTCTGGGCTTGCCCACAATGTACTGGAGGCCCGCCTGTGCACTGGGAGAATGGGGTGGAGCCACTGGGATTTGCGCCTTATGCAGAGGGGAGGAGCCTGGCCTCTTCAGCTCTGCCAGTCGGATAGTGTTCC	-0.512
GATGGACCCTATACGCGGCTCTTTAAAGAAAAAAAAAATGGCTATTGTTTTCCTGAGACCTCCCACATGTTGGGAAATAACTTACAGTGAGGCAGTTTCCTTGTGGTGTAGTCTGAACTCTTGAATAGCTGGCTGTGTATGGATTGCGGCAGTCACCATAACAATGGGCTCATCTTAAAACGTTCATTTAGATTCATTATTGGAACTGTGTGCCAGTCGGATAGTGTTCC	-0.21
GATGGACCCTATACGCGGCCCTACCTGTTTCTTGCAGTCGTGTATTCTGGGACTTTCCTCATGGTGGGACCTTTCACACAACCCTCCTCTTCAAGCTGGGCAAGCCTGTTCTTGTCTCTCTTGTGCTTCAGGAGGAAGTACTGGAGAAGATGTAAGTTTTTAAGCCTTCATTTGGGGGGATGTGGAATGAAGGCAAAGGAGAGATGGGCATGCCAGTCGGATAGTGTTCC	-0.182
GATGGACCCTATACGCGGCTGTGATGTCAGTTTGTATGTACGAGAACAGTGGGTGTGGGCAGTAAAGGGGTGGGATGAAATGAGCATCTGTGTGTGTGTTTGCGCATGTGCATCATGTGTACACACATATGCACACACATGCCTAGTATCTGCTCTCTCCTTATTCTAGATTACCCCTACCCCCTTTTATTAAAGACTCAAGAGGATCTTTGCCAGTCGGATAGTGTTCC	-0.136
